Reference: PubChem BioAssay AID1259254 (NCATS, 2017)

Assay: 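Finding genes that stop cells copying their DNA twice in one cycle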 (primary screen)
Cells: human HCT116 colorectal cancer cells
Knock-down reagent: single siRNA against human genes
Time to read-out: 3 days
Measurement: 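Nuclei stained with Hoechst and imaged; cell-cycle phase assigned by DNA content; G2 share scaled per plate, non-targeting siRNA 0%, GMNN siRNA 100%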
Reading the numbers: G2 robust z-score and G2 cells, % of GMNN control: higher = more G2 cells, more excess DNA replication
Rule for the call: 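An siRNA counts as active if its G2 robust z-score lies at least 5 MADs above the screen median; here such calls match roughly 38% of GMNN control or more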
The whole screen tested about 59,000 reagents; this is a random part of them. In the full data, about 1,550 (2.6%) are marked active. 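G2 share is only a proxy for re-replication; each gene was hit by three separate siRNAs, and active genes were retested.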 The numbers tell different reagents against one gene apart. Further read-outs or replicates are left out here. Not given: the amount of reagent.

PDZD11 #1
- G2 robust z-score: -0.0374
- G2 cells, % of GMNN control: 2.7
- outcome: inactive

PDZD11 #2
- G2 robust z-score: 1.51
- G2 cells, % of GMNN control: 13.6
- outcome: inactive

PDZD11 #3
- G2 robust z-score: 2.14
- G2 cells, % of GMNN control: 18
- outcome: inactive

ZNF525 #1
- G2 robust z-score: -0.0221
- G2 cells, % of GMNN control: 2.81
- outcome: inactive

ZNF525 #2
- G2 robust z-score: -0.661
- G2 cells, % of GMNN control: -1.69
- outcome: inactive

ZNF525 #3
- G2 robust z-score: 0.777
- G2 cells, % of GMNN control: 8.44
- outcome: inactive

PCDHA9 #1
- G2 robust z-score: -0.286
- G2 cells, % of GMNN control: 0.958
- outcome: inactive

PCDHA9 #2
- G2 robust z-score: -0.654
- G2 cells, % of GMNN control: -1.63
- outcome: inactive

PCDHA9 #3
- G2 robust z-score: -0.328
- G2 cells, % of GMNN control: 0.657
- outcome: inactive

TPCN2 #1
- G2 robust z-score: -0.878
- G2 cells, % of GMNN control: -3.21
- outcome: inactive

TPCN2 #2
- G2 robust z-score: 0.34
- G2 cells, % of GMNN control: 5.36
- outcome: inactive

TPCN2 #3
- G2 robust z-score: -0.919
- G2 cells, % of GMNN control: -3.5
- outcome: inactive

Sorted by “G2 cells, % of GMNN control” (highest first): 2 of the entries above
TPCN2 #2
- G2 robust z-score: 0.34
- G2 cells, % of GMNN control: 5.36
- outcome: inactive

TPCN2 #3
- G2 robust z-score: -0.919
- G2 cells, % of GMNN control: -3.5
- outcome: inactive

The listing continues.
NSMAF #1
- G2 robust z-score: 0.439
- G2 cells, % of GMNN control: 6.05
- outcome: inactive

NSMAF #2
- G2 robust z-score: 0.77
- G2 cells, % of GMNN control: 8.38
- outcome: inactive

NSMAF #3
- G2 robust z-score: -0.689
- G2 cells, % of GMNN control: -1.88
- outcome: inactive

TNK1 #1
- G2 robust z-score: -0.615
- G2 cells, % of GMNN control: -1.36
- outcome: inactive

TNK1 #2
- G2 robust z-score: -0.348
- G2 cells, % of GMNN control: 0.517
- outcome: inactive

TNK1 #3
- G2 robust z-score: 1.51
- G2 cells, % of GMNN control: 13.6
- outcome: inactive

FAM86C1P #1
- G2 robust z-score: -0.211
- G2 cells, % of GMNN control: 1.48
- outcome: inactive

FAM86C1P #2
- G2 robust z-score: -0.292
- G2 cells, % of GMNN control: 0.914
- outcome: inactive

FAM86C1P #3
- G2 robust z-score: -0.7
- G2 cells, % of GMNN control: -1.95
- outcome: inactive

CERS4 #1
- G2 robust z-score: -0.0372
- G2 cells, % of GMNN control: 2.71
- outcome: inactive

CERS4 #2
- G2 robust z-score: -0.775
- G2 cells, % of GMNN control: -2.49
- outcome: inactive

CERS4 #3
- G2 robust z-score: 1.81
- G2 cells, % of GMNN control: 15.7
- outcome: inactive

SPTSSA #1
- G2 robust z-score: 2.65
- G2 cells, % of GMNN control: 21.6
- outcome: inactive

SPTSSA #2
- G2 robust z-score: -0.73
- G2 cells, % of GMNN control: -2.17
- outcome: inactive

SPTSSA #3
- G2 robust z-score: 0.828
- G2 cells, % of GMNN control: 8.79
- outcome: inactive

HSPBAP1 #1
- G2 robust z-score: 0.354
- G2 cells, % of GMNN control: 5.46
- outcome: inactive

HSPBAP1 #2
- G2 robust z-score: 3.13
- G2 cells, % of GMNN control: 25
- outcome: inactive

HSPBAP1 #3
- G2 robust z-score: -1.37
- G2 cells, % of GMNN control: -6.66
- outcome: inactive
